# Earlier results, collected in article PMC7345279 (Antibiotics, 2020).
# Tested on: plasma proteins
# Details: cited from earlier work
compound,measurement,value
CN1C(=O)CN=C(c2ccccc2)c2cc(Cl)ccc21 [diazepam],bound (plasma proteins),around 99%
